Values quoted from earlier work in paper PMC6814258 (Pharmaceutical research, 2019).
pIC50: −log10 of the molar value.

System: KV7.1
Conditions: previously shown to inhibit KV7.1; cited from earlier work

Question: With `CC(C)OC(=O)C(C)(C)Oc1ccc(C(=O)c2ccc(Cl)cc2)cc1` [Fenofibrate] as the molecule, how does the pIC50 read?
Answer: 6.00
